Data published in PubChem BioAssay AID540256 (National Center for Advancing Translational Sciences (NCATS), 2011).
Out of some 300,000 compounds screened, about 3,700 (1.2%) were called active. Inconclusive results, whose numbers are uncertain, are shown with a selection of clear calls. The call rests on the fitted dose curve; tested in HEK293 cells. Where the call is inconclusive, the potency comes from a doubtful curve fit.

Assay: qHTS for Inhibitors of binding or entry into cells for Lassa Virus; further: nearly all actives have a fitted effect of over 50% in size
Settings: Lassa virus pseudotype entry inhibition, cell reporter; series mostly up to 37.9 µM
Potency means the concentration at half of the fitted maximal effect.

Compound | Potency
COc1cc(C2c3c(-c4ccccc4O)n[nH]c3C(=O)N2CCO)ccc1OCC(C)C (configuration not stated) | inconclusive: 2.51 µM [inhibitor, partial curve, poor fit]
CN(Cc1cn(C)c2ccccc12)C(=S)Nc1cc(F)cc(F)c1 | inconclusive: 2.91 µM [inhibitor, partial curve, poor fit]
O=C(Nc1ccc2c(c1)OCCO2)c1ccc(Cl)c(Cl)c1 | inconclusive: 10 µM [inhibitor, partial curve]
Cc1cccc(S(=O)(=O)Nc2ccc(-c3nc4ccc(C)cc4s3)cc2)c1 | inconclusive: 4.61 µM [activator, partial curve, poor fit]
O=C(COc1cccc2ccccc12)N1c2ccccc2CCc2ccccc21 | inconclusive: 20.6 µM [inhibitor, single point]
CC1CC2(O)c3no[n+]([O-])c3CCC2N1O (configuration not stated) | inactive
O=C(NCc1cccnc1)c1ccc(NS(=O)(=O)c2ccccc2)cc1 | inconclusive: 0.794 µM [inhibitor, single point]
c1ccc(-c2noc(-c3ccc4ccccc4c3)n2)nc1 | active: 0.291 µM
Cc1ccc(C)c(CSc2cn(CCNC(=O)c3ccccc3F)c3ccccc23)c1 | inconclusive: 35.5 µM [inhibitor, single point]
CCNC(=O)CN(c1ccc(Oc2ccccc2)cc1)S(=O)(=O)c1ccccc1 | inconclusive: 22.4 µM [inhibitor, single point]
Cc1cc(NC(=O)c2ccc(C)s2)n(-c2nc3ccccc3[nH]2)n1 | inactive
CC(C)(C)c1ccc(Cn2nnc3c(=O)[nH]c(C4CCCN(C(=O)Cc5cccs5)C4)nc32)cc1 (configuration not stated) | inconclusive: 2.91 µM [inhibitor, full curve, poor fit]
Cc1ccc(NC(=O)N(CCCN2CCOCC2)Cc2cc3cc4c(cc3[nH]c2=O)OCO4)cc1 | inactive
Clc1ccc(OCc2nnc(SCc3nnc(-c4ccccc4)o3)o2)c(Cl)c1 | inconclusive: 32.6 µM [inhibitor, single point]
O=C(C1CCN(S(=O)(=O)c2ccc(Cl)cc2)CC1)N1CCC1 | inconclusive: 1.26 µM [inhibitor, single point]
O=C(COc1ccccc1[N+](=O)[O-])Nc1ccc(N2CCN(C(=O)c3cccs3)CC2)cc1 | inconclusive: 14.1 µM [inhibitor, partial curve, poor fit]
COC(=O)CNc1cc(S(=O)(=O)N2CCCCC2)ccc1Oc1ccc(C(=O)OC)cc1 | inconclusive: 12.6 µM [inhibitor, partial curve, poor fit]
Cc1occc1C(=O)Nc1cccc2ccccc12 | inactive
COc1ccc(-n2c(CCC(=O)O)ccc2-c2ccccc2)c(OC)c1 | inconclusive: 20 µM [activator, single point]
CC(=O)N1CCCc2cc(S(=O)(=O)N(Cc3ccccc3)C(C)C)ccc21 | inconclusive: 8.91 µM [inhibitor, partial curve, poor fit]
Cc1cccc(N(C(=O)c2ccc(CN3CCOCC3)o2)C(C(=O)NC(C)(C)C)c2ccc(F)cc2)c1 (configuration not stated) | inconclusive: 8.91 µM [inhibitor, partial curve, poor fit]
O=C(N/N=C/C=C\c1ccccc1[N+](=O)[O-])c1cc(-c2ccc3ccccc3c2)n[nH]1 | inconclusive: 35.5 µM [inhibitor, single point]
Cc1ccc(-c2nc(CS(=O)CC(=O)NCCCN3CCN(Cc4ccccc4)CC3)c(C)o2)cc1 (configuration not stated) | inconclusive: 35.5 µM [inhibitor, single point]

Compound | Potency
c1csc(CNc2ccc3c(c2)OCCO3)c1 | inconclusive: 0.447 µM [inhibitor, full curve, poor fit]
CCn1cc(C(=O)NCc2ccc(F)cc2)c(=O)c2cc(S(=O)(=O)N(C)C)ccc21 | inconclusive: 28.2 µM [inhibitor, partial curve, poor fit]
O=C(Nc1ccccc1)Nc1ccc2ncoc2c1 | inconclusive: 6.31 µM [activator, single point]
COc1ccccc1CC(=O)O/N=C(\N)Cc1cccc2ccccc12 | inconclusive: 32.6 µM [inhibitor, single point]
COC(=O)c1cccc(NC(=O)CCCN2C(=O)NC3(CCCC3)C2=O)c1 | inconclusive: 1 µM [inhibitor, full curve, poor fit]
Cc1cc(C)c(Cn2c3ccccc3c3cnn(CC(=O)NCC(C)c4ccccc4)c(=O)c32)c(C)c1 (configuration not stated) | inactive
Cn1cnc2c(SCc3ccccc3)ncnc21 | inconclusive: 11.2 µM [activator, partial curve]
COCCOc1ccc(C(F)(F)F)cc1NC(=O)c1ccccc1 | inconclusive: 10 µM [activator, single point]
Cc1ccc(NC(=O)Cn2nnc3sc4c(c3c2=O)CCCC4)c(C)c1 | inconclusive: 6.31 µM [inhibitor, single point]
Cc1ccc(SCCSc2ncccn2)cc1 | inconclusive: 12.6 µM [inhibitor, single point]
CCN(CC)CCNC(=O)c1cc2c(=O)oc3ccc(C)cc3c2s1 | inconclusive: 20 µM [activator, partial curve, poor fit]
CCCN1CCN(CCCNC(=O)c2ccc(CS(=O)c3ccc(OC)cc3)o2)CC1 (configuration not stated) | inconclusive: 11.2 µM [activator, partial curve, poor fit]
CCCCc1ccc(NC(=O)CSc2nnc3[nH]c(=O)cc(C)n23)cc1 | inactive
O=C(Nc1ccc2c(c1)C(N1CCOCC1)c1ccccc1-2)C(F)(F)F (configuration not stated) | inconclusive: 3.98 µM [activator, full curve]
CCOC(=O)Cc1ccc(NC(=O)c2ccc(C(C)(C)C)cc2)cc1 | active: 12.6 µM
COc1c(Cl)cc(Cl)cc1CNCCSc1nnnn1C | inactive
CCOc1ccccc1NC(=O)CN1CCN(S(=O)(=O)c2ccc(Br)cc2)CC1 | inconclusive: 17.8 µM [activator, single point]
Cc1cccc(C(=O)N/N=C/c2cc(Br)c(Br)o2)c1 | inconclusive: 12.6 µM [inhibitor, single point]
CCCCOc1ccc(C(=O)N(CC)CC(=O)NCc2cccs2)cc1 | inconclusive: 35.5 µM [inhibitor, single point]
COc1ccc(C(=O)C[n+]2ccc3c(c2)nc(-c2ccc(OC)cc2OC)n3C)cc1 | inactive
COc1cc(OC)c(NC(=O)c2c3c(nc4ccccc24)C(=O)N(C2CCCCC2)C3)cc1Cl | inactive
Cc1ccc(C2=NC3(CCCC3)NC2=S)cc1 | inconclusive: 14.1 µM [activator, single point]
CCOC(=O)Oc1ccc2c(=O)c(Oc3cccc(C)c3)coc2c1 | inactive

3 compounds out of the list, ordered by length of the SMILES, low to high:
Compound | Potency
c1csc(CNc2ccc3c(c2)OCCO3)c1 | inconclusive: 0.447 µM [inhibitor, full curve, poor fit]
CCOC(=O)Cc1ccc(NC(=O)c2ccc(C(C)(C)C)cc2)cc1 | active: 12.6 µM
COc1cc(OC)c(NC(=O)c2c3c(nc4ccccc24)C(=O)N(C2CCCCC2)C3)cc1Cl | inactive

(listing goes on)

Compound | Potency
NS(=O)(=O)c1ccc(CCNc2nc(C(F)(F)F)nc3ccccc23)cc1 | inactive
CC1CCCN(CCCOc2ccc(Cl)cc2Br)C1 (configuration not stated) | inactive
Cc1ccc(C(=O)N2c3ccccc3CC2C)o1 (configuration not stated) | inconclusive: 5.01 µM [activator, partial curve, poor fit]
COCCCN1CCN(C2Cc3ccccc3Sc3ccc(Cl)cc32)CC1 (configuration not stated) | inconclusive: 18.4 µM [inhibitor, partial curve]
Cc1ccc(-c2csc(NC(=O)CCCc3cccs3)n2)cc1 | inactive
COc1ccccc1N1CCN(S(=O)(=O)c2ccc(-c3cnc(C4CC4)o3)cc2)CC1 | inconclusive: 25.1 µM [inhibitor, single point]
CCN(CCO)C(=S)Nc1cc(S(=O)(=O)N(C)C)ccc1C | inconclusive: 0.631 µM [inhibitor, full curve, poor fit]
O=C(NC1CCN(Cc2ccccc2)CC1)c1ccc(S(=O)(=O)NCc2ccco2)cc1 | inactive
CCOC(=O)c1ccccc1NC(=O)c1nn(C)c2c1COc1ccccc1-2 | inactive
O=c1c(Cc2ccc(Cl)cc2)c(O)ccn1Cc1cccc(Cl)c1 | inactive
CCN(CC(=O)Nc1ccc(NC(C)=O)cc1)Cc1c(O)ccc2cc(Br)ccc12 | inactive
CC(=O)Nc1ccc(NC(=O)c2cccc3ccccc23)cc1 | inconclusive: 1.58 µM [inhibitor, partial curve, poor fit]
Cc1cc(Cl)ccc1NC(=O)c1cc2ccccn2n1 | inconclusive: 1.12 µM [activator, full curve, poor fit]
CCCN1CCN(CCCNC(=O)Cn2c(-c3cccs3)cc3cc(Cl)ccc32)CC1 | inconclusive: 35.5 µM [inhibitor, single point]
O=C(CN1C(=O)CC(c2ccco2)Sc2ccccc21)NCc1ccc2c(c1)OCO2 (configuration not stated) | inconclusive: 29.1 µM [inhibitor, single point]
CCC(C(=O)NCCc1ccc(Cl)cc1)n1ccc2cc(S(=O)(=O)N3CCCCC3)ccc21 (configuration not stated) | inactive
CC1CCCCN1S(=O)(=O)c1ccc(C(=O)N(CCCN(C)C)c2nc3ccc(Br)cc3s2)cc1 (configuration not stated) | inconclusive: 35.5 µM [inhibitor, single point]
CS(=O)(=O)N(Cc1ccc(Cl)cc1)c1ccc(C(=O)NCCSc2ccccn2)cc1 | inconclusive: 20.6 µM [inhibitor, single point]
COc1cccc(C(=O)Nc2nnc(-c3ccccc3)s2)c1 | inconclusive: 11.2 µM [inhibitor, partial curve, poor fit]
Cc1ccc(NC(=O)Cn2c(=O)ccc3cc(S(=O)(=O)N4CCCC4)ccc32)cc1N(C)C | inactive
O=C(c1ccc(Cl)cc1)c1cn(Cc2ccccc2)c2cc3c(cc2c1=O)OCCO3 | inconclusive: 35.5 µM [inhibitor, single point]
